# The other results are listed elsewhere or left out.
# Molecular target: T1, OsSMF1 (Oryza sativa, UniProt Q6ZLB0 1-436)
# T1 sequence: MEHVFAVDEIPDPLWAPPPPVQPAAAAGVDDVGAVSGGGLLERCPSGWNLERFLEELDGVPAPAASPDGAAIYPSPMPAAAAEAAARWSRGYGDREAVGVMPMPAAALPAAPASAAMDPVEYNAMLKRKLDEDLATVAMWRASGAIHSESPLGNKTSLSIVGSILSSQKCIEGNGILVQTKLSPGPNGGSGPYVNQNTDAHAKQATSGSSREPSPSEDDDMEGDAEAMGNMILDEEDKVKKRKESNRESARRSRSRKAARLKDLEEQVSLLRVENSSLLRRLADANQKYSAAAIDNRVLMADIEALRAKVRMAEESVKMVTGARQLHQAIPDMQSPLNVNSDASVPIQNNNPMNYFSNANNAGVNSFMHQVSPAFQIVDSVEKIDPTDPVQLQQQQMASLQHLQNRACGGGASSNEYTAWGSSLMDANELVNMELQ
# Test: protein-binding microarray (RPBM); PBS, 2% BSA, 51.3 ng/ul salmon testes DNA, 50 uM zinc acetate, 200 nM TF, 25 C, 1 h; high values mean tight binding
# Settings: protein: recombinant; tags: N-terminal polyhistidine and DsRed monomer fusion (pET32a); chain copies: 2; label: CyDye5-dUTP incorporated in the synthesized complementary strand; 3' TTTTT single-stranded linker to array surface; dsDNA, one strand shown
# Procedure, shortened: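 Per-feature fluorescence intensity (arbitrary units), read on an Axon 4000B scanner, is the binding signal. Transcription factors carrying an N-terminal polyhistidine tag and DsRed fusion were expressed in E. coli BL21-CodonPlus and purified on Ni–NTA. A custom Agilent array, made double-stranded by primer extension with Cy5-dUTP and blocked with 2% BSA, was incubated with 200 nM protein in PBS, 2% BSA, salmon testes DNA and 50 µM zinc acetate at 25 °C for 1 h and then washed.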
row,Sequence,binding signal
1,CAGGCAATGCGTTGCGTTTTCTCACACGTGCTCTCAGCGTCGGAGTCACCTAGTGCAG,4120 fluorescence intensity (a.u.)
2,CCACCGCCGCCACACAGTCCGCTTCGGTTCCCCGTTTCCGCGGAGTCACCTAGTGCAG,65500 fluorescence intensity (a.u.)
3,GAAGGTAAGATCACTTCAATAGAAGAATCGAGAAGAGTGCCGGAGTCACCTAGTGCAG,3550 fluorescence intensity (a.u.)
4,GAGCATGGAGAGAGTATAATCCACGTGATCTGCAACCATCCGGAGTCACCTAGTGCAG,3600 fluorescence intensity (a.u.)
5,CCTTGGTGAGTCACGGGACGTACACGTCAGCGGCGTGATCCGGAGTCACCTAGTGCAG,29900 fluorescence intensity (a.u.)
6,GACTGCAATTCTGCAATCACCTACGTGTACTTGAACCGAACGGAGTCACCTAGTGCAG,3590 fluorescence intensity (a.u.)
7,GGCGAGAGCGGCACGCCGTGGCATTGGACGAACACTCGTACGGAGTCACCTAGTGCAG,4050 fluorescence intensity (a.u.)
8,ACTTTAGCCGATATGAGTTTACCCTACCTTGGAATATCTACGGAGTCACCTAGTGCAG,3800 fluorescence intensity (a.u.)
9,GCCGTCGCTGCTGCTCAAGGGCCTCGTCGCGTGCACCGGCCGGAGTCACCTAGTGCAG,3220 fluorescence intensity (a.u.)
10,TCGCCCTCTCGTGACGTCATCCTCCCATCTATGGAAGACCCGGAGTCACCTAGTGCAG,17300 fluorescence intensity (a.u.)
11,CGTCCGGTGACTGACGTACGTGGATATGTTTTCATTTGAACGGAGTCACCTAGTGCAG,4930 fluorescence intensity (a.u.)
12,CATGTATGACACATCAATTTGAAATCATGATGCATATGCACGGAGTCACCTAGTGCAG,6260 fluorescence intensity (a.u.)
13,ATTCATTAATATGTGAACTTTAGTAATGATGACACTACATCGGAGTCACCTAGTGCAG,3860 fluorescence intensity (a.u.)
14,GCTAGAAAATGTAGAGTGAGAGCAAAGTGTGATAAATGCACGGAGTCACCTAGTGCAG,4340 fluorescence intensity (a.u.)
15,GGTGTGTGTATGTGTTTATATGGTGAGTGTACACACGTTGCGGAGTCACCTAGTGCAG,3150 fluorescence intensity (a.u.)
16,TTAGCTGAATCGTCTTCGTTAGCAGTGAGAGTGACAGACGCGGAGTCACCTAGTGCAG,3160 fluorescence intensity (a.u.)
17,CCACTGGACCATAACTGGGCCCAGCACACAGAAACAAATCCGGAGTCACCTAGTGCAG,44700 fluorescence intensity (a.u.)
18,AAATGTCACATCGATGTCACGTGGAAATAATATCTAGTTACGGAGTCACCTAGTGCAG,4810 fluorescence intensity (a.u.)
19,GTAGCTCGTCGTCACTGCCCATAGTACTCTGGCTTAGCTACGGAGTCACCTAGTGCAG,4530 fluorescence intensity (a.u.)
20,ACGTGGGCGCGGGTAAGCCGTGGCGGGCGGTGACGATGGACGGAGTCACCTAGTGCAG,3430 fluorescence intensity (a.u.)
21,AGAACTTCAGACCGCTATGTCGACAATAGTTAGATAGGCTCGGAGTCACCTAGTGCAG,3220 fluorescence intensity (a.u.)

row,Sequence,binding signal
1,TGAGTCTAATTAGTCCATGATTAGTCGTAAGTGCTACGATCGGAGTCACCTAGTGCAG,14800 fluorescence intensity (a.u.)
2,GTACGATCCAGCGGGGCAACTCTGACACGGGCCGCGCCACCGGAGTCACCTAGTGCAG,3970 fluorescence intensity (a.u.)
3,GGGACCTGGCGCCGCGCGGTCGTGTCGTCGTGGCTGCCTGCGGAGTCACCTAGTGCAG,3900 fluorescence intensity (a.u.)
4,ACAAGATGCAGGGGACTGATGAGTCATAAAGCTGATGAGCCGGAGTCACCTAGTGCAG,8740 fluorescence intensity (a.u.)
5,TCGAGATGCCATGGTACTGTCTGACGTCGCCTTTGATTGTCGGAGTCACCTAGTGCAG,5060 fluorescence intensity (a.u.)
6,AACTCCGAATTCCTCCTCCTCATCGCGTGATTCCGTTTTGCGGAGTCACCTAGTGCAG,3510 fluorescence intensity (a.u.)
7,CAGGGGCAGGTTTCTGCATGGTCGAGTCCAAGATGCACAACGGAGTCACCTAGTGCAG,24100 fluorescence intensity (a.u.)
8,AAAGTTTTGCATGCCGCTGTCGAAGTCGGCTTCCGCGTAGCGGAGTCACCTAGTGCAG,32300 fluorescence intensity (a.u.)
9,CTCTGTGCGCCAGTGGTGAAGAGGGTGTCGTGGCGGTGGGCGGAGTCACCTAGTGCAG,5100 fluorescence intensity (a.u.)
10,ATATAAAATTAGTTTTATTAAATCTAAATTGAATATATTTCGGAGTCACCTAGTGCAG,6750 fluorescence intensity (a.u.)
11,ATTATGGTAGCTTGCATCATGCATGTGCTCCTTAGTTATGCGGAGTCACCTAGTGCAG,4700 fluorescence intensity (a.u.)
12,TGGGAGCACGGTTGTCTGCCGATGACGTGACCGGCGTCAGCGGAGTCACCTAGTGCAG,7980 fluorescence intensity (a.u.)
13,CTCTTGCATGAGTCTATCTATTGTCAGGTACCTTTGGAGCCGGAGTCACCTAGTGCAG,4080 fluorescence intensity (a.u.)
14,ATTCAGGCTCTCTTCCATCTCCTGGAAGTCCACATCAACGCGGAGTCACCTAGTGCAG,4660 fluorescence intensity (a.u.)
15,ATGTAGTACTAGGACACATCACATCCGGTACTAGGTTGCTCGGAGTCACCTAGTGCAG,3390 fluorescence intensity (a.u.)
16,AAGATATATGTGTGTATGACAGGTAGGACCAGACAATAGACGGAGTCACCTAGTGCAG,3210 fluorescence intensity (a.u.)
17,CCCTCTCCTCCCGCACGCGCGCGTCGGCGCCACCACCGGGCGGAGTCACCTAGTGCAG,3240 fluorescence intensity (a.u.)
18,TTTAAAAGATAAACAACATGCACGTGTTCTCATCAGATGTCGGAGTCACCTAGTGCAG,37100 fluorescence intensity (a.u.)
19,TACTTTAAGTACATGTATTAGTCAGCTGATATATACCTCACGGAGTCACCTAGTGCAG,4310 fluorescence intensity (a.u.)
20,AGGGAGGTCGCGCGTGTCAGACTATATTAGGTATTTCCCCCGGAGTCACCTAGTGCAG,3520 fluorescence intensity (a.u.)
21,GTTCTGCTAATCTGTAATGTTTCTTTTGTTTGTCATATCTCGGAGTCACCTAGTGCAG,3610 fluorescence intensity (a.u.)

# Rewritten as tab-separated lines: entries from further up
row	Sequence	binding signal
1	TGAGTCTAATTAGTCCATGATTAGTCGTAAGTGCTACGATCGGAGTCACCTAGTGCAG	14800 fluorescence intensity (a.u.)
2	GTACGATCCAGCGGGGCAACTCTGACACGGGCCGCGCCACCGGAGTCACCTAGTGCAG	3970 fluorescence intensity (a.u.)

# Source: publication PMC7819943, “Rice protein-binding microarrays: a tool to detect cis-acting elements near promoter regions in rice”
